Test results reported in the supplement of paper PMC3334620.
In all, about 33,000 sequences were measured (“E-score (-0.5 to 0.5)”: median about -0.015, highest 2% from about 0.3 on). The list shows a part of the results.

The sequences below were run against T1, Abf1 (UniProt P14164) (assay: PBM E-score (8-mer binding enrichment) (E-score (-0.5 to 0.5)); higher = stronger / more preferred TF binding). Settings: protein concentration: 200 nM; construct: GST-full length.
T1 sequence: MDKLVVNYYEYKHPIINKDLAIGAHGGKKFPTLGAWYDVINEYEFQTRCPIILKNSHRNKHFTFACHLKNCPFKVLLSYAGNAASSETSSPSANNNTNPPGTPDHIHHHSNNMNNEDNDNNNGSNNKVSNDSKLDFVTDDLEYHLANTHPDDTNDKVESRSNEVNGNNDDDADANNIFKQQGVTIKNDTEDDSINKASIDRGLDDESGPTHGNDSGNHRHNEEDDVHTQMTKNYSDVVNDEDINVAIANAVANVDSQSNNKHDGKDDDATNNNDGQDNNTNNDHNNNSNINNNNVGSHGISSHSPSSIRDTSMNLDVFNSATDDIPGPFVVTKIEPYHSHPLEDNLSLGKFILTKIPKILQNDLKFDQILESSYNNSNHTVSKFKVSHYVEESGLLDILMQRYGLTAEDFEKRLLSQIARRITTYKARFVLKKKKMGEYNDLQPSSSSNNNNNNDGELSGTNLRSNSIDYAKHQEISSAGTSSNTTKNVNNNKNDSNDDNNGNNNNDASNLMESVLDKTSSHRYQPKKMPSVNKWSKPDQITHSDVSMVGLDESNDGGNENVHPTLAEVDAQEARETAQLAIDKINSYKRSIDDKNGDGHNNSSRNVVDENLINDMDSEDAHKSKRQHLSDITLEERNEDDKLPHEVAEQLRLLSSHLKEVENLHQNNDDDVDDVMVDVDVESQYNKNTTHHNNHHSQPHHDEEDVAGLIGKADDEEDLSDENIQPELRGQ
Procedure: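 Universal 'all 10-mer' protein binding microarrays (Agilent AMADID 015681) probed with GST-tagged S. cerevisiae TFs (full-length or DBD) made by in vitro transcription/translation (PURExpress), about 100-200 nM. Bound TF was detected with fluorescent anti-GST. Each ungapped 8-mer (which stands for itself and its reverse complement) is scored by the PBM enrichment score (E-score), a modified Wilcoxon-Mann-Whitney statistic from -0.5 to +0.5, computed with the Universal PBM Analysis Suite. Scale: above 0.35 generally sequence-specific binding.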

Sequence	PBM E-score
GACACGGA	0.167
AGAACGCT	-0.0434
GAGATACA	0.146
AGGATCAG	-0.28
CTGCAATA	-0.019
TTCCAGAA	-0.0293
CTTACCCA	-0.185
GATAGGAA	0.0434
TGTGACAA	0.221
GGATTACC	-0.197
ACTTCAGC	-0.124
ATCCTAAG	0.0143
ACAGCAAC	0.134
GTTTCCTA	-0.019
CATTGTAC	0.0707
CGTATCAC	0.281
AAAACGGA	0.132
AAAGACGT	0.209
CATGGTAG	-0.0639
GATACAAA	0.191
CAGCGGGG	-0.211
ACTTTTAG	0.115
TGTTAACA	-0.166
CATCTAGA	-0.012
GGATATAA	0.298

Sequence	PBM E-score
CCTACCCA	-0.0556
ATGGTCGC	-0.0347
CATTGGCC	-0.225
ACGTGTCG	0.0554
GATTCGGA	0.096
GCTAGGAC	-0.205
TCCCTCAA	-0.144
CCATGATA	0.126
AGAGACCT	-0.0443
ATACTCAG	0.106
GTGCACCA	-0.132
ACATAAGC	-0.0854
ACACACAT	0.0467
GACTCTCA	-0.0261
GCCTCGGA	-0.182
CAGTTGAG	-0.16
AGATCACT	0.437
GGTTCTTA	0.0253
ACACAGCC	0.00017
GCTGCGAA	0.054
CGACACAA	-0.0728
AATCACAT	0.157
AAGTACTT	-0.0461
AGGTCGTC	0.208
TACGTCTA	0.0776

Sequence	PBM E-score
CAGATAGC	-0.224
GGCCGGGA	0.0147
ATGGTTCA	-0.00066
ATTGACAC	-0.12
AAATCTGC	-0.0123
GCTCGCCC	-0.13
CGGAAGGA	-0.238
ACTGATAC	-0.00711
AACCCGTA	-0.156
CTGAGCGC	-0.0613
AAGGAGTC	-0.211
GATAACTA	0.202
CTAGCATA	-0.0264
AAAATGCC	0.173
AAATGGTA	0.145
CTTGATCC	-0.0509
GTTCACAA	0.177
CCTTAGAA	-0.109
GATGCAAA	-0.124
CGAGCTAA	-0.116
AGGCCTAT	-0.124
GCTAATGA	0.138
GCTGAGAC	-0.0657
ACACTTGC	-0.0133
GTATAACA	0.203

Sequence	PBM E-score
AGACGGCT	-0.0258
GCCGGGTA	-0.118
GCTGGAGA	-0.0857
AACATCCT	-0.103
GGCGTGAC	0.137
GATGCCGA	0.0182
AAACCGGT	-0.0782
CCGGTTCA	-0.0583
CGTCCGGC	-0.0786
GAAGAGGC	-0.196
ATCCAACC	-0.0316
AGCGTAGG	-0.163
GCGGTCCA	-0.217
GAGGTCAA	-0.0287
TCTGGCAA	0.0171
AAAAAATA	0.142
AGTTCTCA	0.0633
TATACCAA	0.00425
GTATTGAA	0.108
CGGCGAAG	0.0243
CGCGCGTA	-0.0596
AACAAATC	0.171
TGTCTCAA	0.076
GTCTACCA	-0.0632
AGGTTATG	-0.0367

Sequence	PBM E-score
GCTATCAA	0.0368
GAAGCTAA	-0.0134
AGCTCGAT	-0.0739
GATCTGGA	-0.0747
ACAGTATA	-0.0162
CTGTAAAA	-0.0504
GCTACTCC	-0.258
ACAAACTA	0.123
ATTCTTAG	-0.145
GGCATCTA	0.0789
GGACGTCA	0.0888
CCCCCGTC	0.0124
AATTCTCG	0.162
ACACCCTG	-0.0552
GGCATGAA	-0.0305
AATGCAAA	0.111
GATTAACC	-0.142
CCGCGTCC	-0.0279
AATGTAAT	0.222
AGAACGCC	-0.201
CCGGCGAA	-0.102
CGGTCCCA	-0.0145
ACCCTGTC	-0.17
AGTAAGTA	0.182
AATCCGGG	-0.261

Sequence	PBM E-score
AGGCACTC	-0.109
CGGCTACA	-0.213
GCTTTTCA	-0.0944
CTCTCCCC	-0.158
CGTCACGA	0.336
AATGTTGT	0.0602
GTCACGTA	0.158
CTCGCGAG	-0.232
AATAGATA	0.0138
ATGGTCTC	0.00673
ATCGAGCA	-0.0798
ACTGGTTC	-0.023
CCGCTGCG	-0.115
GGAGCCAC	-0.32
ACTATTAT	0.199
CAAATGGG	-0.163
CGCAGGCA	-0.0438
ATACGTAA	0.24
CCAACCAG	-0.184
CACGCCGA	-0.258
GTTCCACA	-0.0914
GGGCACCA	-0.229
CGGTCGCA	-0.0853
CTCTCTAC	0.0181
CCGACACG	0.0415

Sequence	PBM E-score
ATGGGTGA	0.105
GATTATCC	0.152
CCACGGGA	0.109
CACCCACA	0.0828
AGGTACAC	-0.264
TAGACCCA	-0.182
ACTGTAGC	-0.0903
AAAAAAAA	0.0335
CTCTAGCA	-0.173
CGGCCGTA	0.235
AATCTTGG	-0.121
AGGAAGGG	-0.233
TCCTCCCA	0.0342
CAGTGAGC	-0.118
CCGCCAGG	-0.169
TGCGACAA	0.0936
GAAGAAGC	-0.173
AGGGGTTG	-0.0576
ATGGTACA	-0.0607
ACCCGAAC	0.0408
GGAGCCAA	-0.227
GCCGGGGA	-0.121
AACGCGGA	0.00035
GCTACTAA	-0.0302
ATAGCATA	0.104

Given as labelled records: part of the list above.
GAAGAAGC
  PBM E-score: -0.173
GCTACTAA
  PBM E-score: -0.0302
ATAGCATA
  PBM E-score: 0.104

(next part)

Sequence	PBM E-score
CGCCCCCA	-0.429
ATTAGGGG	-0.206
ACGAGACT	0.199
AAGGAGAT	-0.226
CTAGCAAA	0.0908
AAGCCACT	-0.0712
ACCCCTCC	-0.388
AAGCAGAA	-0.0143
CCTAGTGC	-0.0101
AATTGGGC	-0.0883
CCGCAGGC	-0.0707
CATTCGAC	0.143
ACCCTACA	-0.153
AACGTCTG	0.0634
GAAAGCTA	-0.129
AGACAGTA	-0.0597
AGGGGTAG	-0.239
GATTTTCA	0.216
AATCCTAA	-0.147
TCCACAAA	0.00476
ACTCAACT	-0.00532
AATATCAT	0.391
GGAATCCA	0.0505
ACGATTTA	0.295
ACGTATGA	0.332

Sequence	PBM E-score
GGTAACGA	0.166
TGAATGCA	0.0373
CGTTCCCC	-0.0832
CTACGGCC	0.178
CGGGGCAC	-0.115
CCGGAATC	-0.0839
CCGCAACC	-0.244
AGAGGGAA	-0.12
AATCGTTG	0.162
CGGCAGAG	-0.193
ACACATTC	0.0901
CACTGAGA	-0.104
AAATGAGA	0.101
AAGTCATG	0.234
ACCTGAAG	-0.11
GCGGACGA	0.276
AGCGCGTA	0.1
AAATAGGT	-0.0416
AGTAAACT	-0.0386
AGAGCATG	-0.111
AATGTTCT	-0.0127
ATCCCGAA	0.0211
TAAATTGA	0.113
GTAGTCTA	0.0368
CTACTAAG	-0.156

Sequence	PBM E-score
TGCATACA	0.0795
CGGTACTA	-0.0993
CGAAAACA	0.0918
CAGGCTAA	-0.16
GTTACCTA	0.0964
AACCGGTC	-0.154
CTTGAAAA	-0.0298
AATTTCCC	-0.139
ATCCCCTA	-0.123
AGACCGGA	-0.159
ATTTCCGC	-0.0104
CGAGAGCA	-0.0239
AGATCCGA	0.0833
CGCGCCCG	0.0839
ACGCTCAA	-0.041
AGCACAAG	-0.103
CTGCCACA	-0.0763
AAGCCTGT	-0.153
CGACTGTC	-0.132
CGCCGCAC	-0.0587
CGCAAATC	-0.176
GCGAGCAA	-0.0293
CTCTAAAC	-0.0603
CTGGCCAG	-0.0971
AACTCTAA	-0.0763

Sequence	PBM E-score
GGATGATA	0.31
CTTTTAGC	-0.0691
TCACCAAA	0.162
ACGAGATG	0.051
GCGTAAAA	0.103
ATGCGATG	-0.0297
GCTCTCTA	0.0364
CGTTGAAA	0.201
CCACTGAA	-0.0969
CATTAGCC	-0.124
AGCCGACC	-0.0289
TATCCAGA	-0.0622
CCGGGCCG	-0.129
CACCTTAC	-0.182
AGGCTCTG	-0.089
TAGAAGGA	-0.228
AACAGAAC	0.0812
TCAACTGA	-0.024
AAATGGTG	-0.0227
AGGATAGC	0.181
ACCGTCTG	-0.00329
ACACATGA	0.0169
ATTGATTC	0.147
ATAGCGTG	-0.074
CGAGATAA	0.228

Sequence	PBM E-score
ATAGGTGC	-0.0257
TCGTAGAA	0.393
CATTACAG	-0.0265
AGGCATAG	-0.121
CCCCGGCA	-0.16
AGCACCTA	-0.101
CATGACGG	0.0231
CGGGTTAA	-0.0578
GGGGTGTA	-0.203
CGCCATCA	-0.165
ATACAGTC	-0.0959
AAAAGGGG	-0.182
GGAAATAA	0.115
ATCTTCGC	0.0673
ACTGTATC	0.0858
AACGCACC	-0.233
ATGGAATG	-0.0802
AAGAACCT	-0.0891
CCCGAGCG	-0.0814
GATATAAA	0.22
ACGGCAAC	0.213
GATTATGC	0.0905
ACCCTTGC	-0.18
ACACCACA	0.123
CCTAATGA	-0.00705

3 entries from above, with bars between the fields:
Sequence | PBM E-score
CATGACGG | 0.0231
CGGGTTAA | -0.0578
GGGGTGTA | -0.203

Continued:

Sequence	PBM E-score
ACTATTGG	-0.0166
CTATGTCA	0.31
AGGCTTTC	-0.0982
ACAACTTG	-0.0904
CGTTGAGA	0.176
AGAGTGAC	0.288
GTAATTAA	0.0449
GGTATCTA	0.0789
CTAACGTA	0.225
TCATATGA	0.101
ACGCTCTC	-0.025
AGAATTAA	-0.174
AATGCCAT	-0.0524
AACCGGTT	0.0655
TCCGCCGA	-0.105
GGAAACGA	0.172
AAGCAGCC	-0.127
GCAGGTCA	0.0527
CAGGTCAG	-0.22
ACACAGAA	-0.124
AACCGGGT	-0.159
GAAGCACC	-0.247
ATCTTGCA	0.199
CCGGACAC	-0.0465
CCGTGCAG	0.192

Sequence	PBM E-score
GACTACTC	-0.0492
TACTACCA	-0.194
CAAAGATA	-0.0399
ATCGGATC	0.0622
CAATCCAA	0.124
AGGCGTTA	-0.128
ACGTGTAC	0.115
AGTATAAT	0.101
CTCGCCGA	-0.00188
GCATATCC	0.179
CGTCCAGA	0.0648
ATATGTAC	0.0989
CGCGCACC	-0.00342
AGAGCAGA	-0.00424
GAACGCGA	-0.146
CGAATTCG	-0.0733
CAGAGGCA	-0.205
AGACGGAT	0.166
ATAGAAAA	-0.00184

Quoted at random: 7 entries already listed, in no set order.
Sequence	PBM E-score
CGAATTCG	-0.0733
GCATATCC	0.179
ATCGGATC	0.0622
CAATCCAA	0.124
CGCGCACC	-0.00342
AGGCGTTA	-0.128
AGACGGAT	0.166
